This note sets out measurements from paper doi:10.1101/2024.02.29.582672.

Amino acid sequences for entries named in this document (tags omitted).
UniProt Q2HR95: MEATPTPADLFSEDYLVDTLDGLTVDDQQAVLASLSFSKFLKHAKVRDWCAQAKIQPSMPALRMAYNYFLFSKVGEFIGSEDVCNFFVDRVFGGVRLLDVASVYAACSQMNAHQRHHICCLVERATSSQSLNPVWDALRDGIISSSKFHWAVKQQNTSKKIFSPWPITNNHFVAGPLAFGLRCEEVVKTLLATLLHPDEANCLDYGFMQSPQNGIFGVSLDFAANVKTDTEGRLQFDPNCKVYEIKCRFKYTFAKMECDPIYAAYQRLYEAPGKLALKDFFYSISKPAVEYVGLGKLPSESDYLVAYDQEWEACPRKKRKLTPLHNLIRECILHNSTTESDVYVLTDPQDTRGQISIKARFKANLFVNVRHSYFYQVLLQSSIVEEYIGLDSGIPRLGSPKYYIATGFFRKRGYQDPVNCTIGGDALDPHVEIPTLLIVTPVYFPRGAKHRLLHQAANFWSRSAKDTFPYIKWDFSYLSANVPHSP
UniProt Q86WV6: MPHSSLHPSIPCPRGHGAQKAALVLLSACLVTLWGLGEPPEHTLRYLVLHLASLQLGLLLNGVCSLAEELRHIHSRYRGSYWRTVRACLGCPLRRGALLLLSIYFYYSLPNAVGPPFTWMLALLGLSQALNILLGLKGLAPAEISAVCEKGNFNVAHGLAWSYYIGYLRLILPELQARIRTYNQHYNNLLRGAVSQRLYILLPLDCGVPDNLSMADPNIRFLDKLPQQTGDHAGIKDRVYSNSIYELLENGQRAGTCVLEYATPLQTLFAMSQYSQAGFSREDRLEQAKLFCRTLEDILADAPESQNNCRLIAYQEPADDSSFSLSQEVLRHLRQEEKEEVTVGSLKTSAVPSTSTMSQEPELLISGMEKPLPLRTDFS

Results are given in words; binding and its absence hold for the method and conditions named. In cells and extracts the contact can be indirect.

For the test, the target named is KSHV ORF37, STREP-tagged (pCDNA4.TO-ORF37-2xCSTREP) (Kaposi's sarcoma-associated herpesvirus (KSHV)) (UniProt Q2HR95). Kind of test: co-IP; HEK293T cells transfected with HA-STING and empty backbone, STREP-ORF37 or STREP-ORF48; 48 h later lysates immunoprecipitated with STREP antibody and protein A/G beads; blots with HA or STREP antibodies.

With “HA-STING (stimulator of interferon genes) (from UniProt Q86WV6 1-379)”, the binding result is “no binding”.
